Reference: US20110117166A1, “IMPLANTABLE BONE GRAFT MATERIALS” (AFFINERGY, INC., priority 2009, published 2011)
For at least one compound, name, drawing or mass did not settle the structure. Ends that are not written are not given here.

Target: T1, BMP-2 (Homo sapiens, UniProt P12643)
T1 sequence (P12643 283-396): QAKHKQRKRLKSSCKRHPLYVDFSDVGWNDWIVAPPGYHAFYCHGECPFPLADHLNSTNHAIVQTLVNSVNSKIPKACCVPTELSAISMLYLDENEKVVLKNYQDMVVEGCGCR
Experiment: Relative EC50 of synthetic BMP binding peptides for BMP-2
Settings: data not shown

Substance	EC50 [nM]
SSVAEWALRSWEGMRVGEASR-NH2 (C-terminus assumed) [SEQ ID NO: 7]	1.1
GGGAWEAFSSLSGSRV-NH2 (C-terminus assumed) [SEQ ID NO: 1]	0.8
SSGPREIWDSLVGVVNPGWSR-NH2 (C-terminus assumed) [SEQ ID NO: 5]	2
SSGGVGGWALFETLRGKEVSR-NH2 (C-terminus assumed) [SEQ ID NO: 6]	1.8
